The list shows a part of the results.

Sequences of proteins named here, by UniProt entry; tags and fusion partners are left off.
UniProt Q0JBA9, entry or part of it: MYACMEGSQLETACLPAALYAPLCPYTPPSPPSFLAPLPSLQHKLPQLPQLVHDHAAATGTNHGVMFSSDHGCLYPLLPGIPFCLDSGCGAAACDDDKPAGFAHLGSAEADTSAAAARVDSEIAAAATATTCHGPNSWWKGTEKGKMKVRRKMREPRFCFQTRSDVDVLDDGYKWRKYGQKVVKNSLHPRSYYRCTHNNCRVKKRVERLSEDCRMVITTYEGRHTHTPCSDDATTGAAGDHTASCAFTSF

The assay concerns the target OsWRKY34 (Oryza sativa, UniProt Q0JBA9 1-250). Kind of assay: protein-binding microarray (RPBM); PBS, 2% BSA, 51.3 ng/ul salmon testes DNA, 50 uM zinc acetate, 200 nM TF, 25 C, 1 h; high values mean tight binding. Particulars: protein: recombinant; tags: N-terminal polyhistidine and DsRed monomer fusion (pET32a); label: CyDye5-dUTP incorporated in the synthesized complementary strand; 3' TTTTT single-stranded linker to array surface; dsDNA, one strand shown. The essentials:
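Transcription factors, each fused N-terminally to a polyhistidine tag and DsRed, were expressed in E. coli BL21-CodonPlus and purified on Ni–NTA. A custom Agilent array was made double-stranded by primer extension with Cy5-dUTP and blocked with 2% BSA. It was incubated with 200 nM protein in PBS, 2% BSA, salmon testes DNA and 50 µM zinc acetate at 25 °C for 1 h, then washed. The binding signal is per-feature fluorescence intensity (arbitrary units) read on an Axon 4000B scanner.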
As to “CGGTTGTTCTGAGTTCGATTTTTTTTGGCCAGCGGTTGTTCGGAGTCACCTAGTGCAG”, the binding signal was 13200 fluorescence intensity (a.u.).
The same measure for “ATCGGGCCGAAACTCCATTCTTTCTTCCTTTTTGGCCCAACGGAGTCACCTAGTGCAG”: 10200 fluorescence intensity (a.u.); for “AACTATATATGCCTTTTTCAGTAGTACTATACCGCTGCGACGGAGTCACCTAGTGCAG”: 8170 fluorescence intensity (a.u.); for “TTCGATTTGTACCGACATGTTTCCGTCCATATTATTCTGTCGGAGTCACCTAGTGCAG”: 12800 fluorescence intensity (a.u.).
With “ATGCGTCCAAATATACTGTCCCGTGGTTTATTCATCCAAACGGAGTCACCTAGTGCAG”, the binding signal was 8040 fluorescence intensity (a.u.).
Under “TACTTTCACTCTCACCTCACCATTTCTTCTTCTTCTTCCTCGGAGTCACCTAGTGCAG” stands 10100 fluorescence intensity (a.u.).
On to “TTTTTTTCTTTCCGTATCTTTTTCTTTTTTTGGTTTTTTACGGAGTCACCTAGTGCAG”, for which the binding signal was 8410 fluorescence intensity (a.u.).
The same measure for “CTCCTTTCGCCTCCTCATCCTCCTGCTTCCGAAATCCTCACGGAGTCACCTAGTGCAG”: 8900 fluorescence intensity (a.u.).
Under “GAGAGTTAGGGTTCGACGGCGGGGTTGTGGAATGGGGAATCGGAGTCACCTAGTGCAG” stands 8480 fluorescence intensity (a.u.); under “TGATTTGATCTGTGTTGATTCGATTTGTGCTGAATTATTCCGGAGTCACCTAGTGCAG”, 8080 fluorescence intensity (a.u.).
On to “ATCTCCACGCCGACGCCCCGCTCCGCCATGGCCCGCGCGACGGAGTCACCTAGTGCAG”, for which the binding signal is 12600 fluorescence intensity (a.u.).
Under “TATAGTAGTATGGGTGGAGATTTATATTTTTCTCTCGATTCGGAGTCACCTAGTGCAG” stands 8940 fluorescence intensity (a.u.).
Take “TCTGGTGACGCCTCCTGTCTCTCTTGTCGGCGTCTCTCTCCGGAGTCACCTAGTGCAG”: the binding signal is 10700 fluorescence intensity (a.u.).
The same measure for “GTAATTCGTACTTTTTCCAAACTGTAATAGTGTCATACTACGGAGTCACCTAGTGCAG”: 10300 fluorescence intensity (a.u.).
Regarding “TGGGCCTCTTTCTTCCCACACTACTTTGGGCCATCCAAAACGGAGTCACCTAGTGCAG”, the binding signal is 12100 fluorescence intensity (a.u.).
Consider “ATCGTCACCTCGTTTTGCTTGTCTACTTCGATCGCCGCCTCGGAGTCACCTAGTGCAG”, for which the binding signal is 14800 fluorescence intensity (a.u.).
Under “GATCCTCATTCGACTGTATCCTATCCTGTGCATTCGTGCCCGGAGTCACCTAGTGCAG” stands 9860 fluorescence intensity (a.u.).
The same measure for “TTCTCAGCTTGGCTTTACATGTTTTCTTGCCACTAACCAGCGGAGTCACCTAGTGCAG”: 11200 fluorescence intensity (a.u.); for “TGGCTGGATGGGACTCTATATACATATGTCGATAAAAAGACGGAGTCACCTAGTGCAG”: 10200 fluorescence intensity (a.u.).
The same measure for “GTTCAGAAGTATTATCAACATGACTTTGATTTGTCGTTACCGGAGTCACCTAGTGCAG”: 8420 fluorescence intensity (a.u.); for “TCTCACTCTCTCACACACACACTCTCTCTCTCTGCTAGCTCGGAGTCACCTAGTGCAG”: 9820 fluorescence intensity (a.u.); for “GTTGGCAGGCAGGCATGTTGCTCGATCGATCCTTTTGTTTCGGAGTCACCTAGTGCAG”: 8810 fluorescence intensity (a.u.).
As to “TTCAACCATTCCACTCTATTAACCCATCACATTTTAATACCGGAGTCACCTAGTGCAG”, the binding signal is 9280 fluorescence intensity (a.u.).
Under “ATTCCTCTCTCTTCCACCGCTCCGCCTTCCTTTGATCCTTCGGAGTCACCTAGTGCAG” stands 11500 fluorescence intensity (a.u.); under “ATGTTTGACGCTGTTGACTTTTTTAAACATATTTGACTCTCGGAGTCACCTAGTGCAG”, 21500 fluorescence intensity (a.u.); under “TCTCCTCCACCTCAGCATTTAGCCGGCTTATAGCCTACTACGGAGTCACCTAGTGCAG”, 8830 fluorescence intensity (a.u.).
The same measure for “ACATTTTCACGAGTCTTTTCACTTCCGCCCGCGCCCAAGTCGGAGTCACCTAGTGCAG”: 11800 fluorescence intensity (a.u.); for “GGTACAATTAATTACTCGCGCCACCTATCCAATTTCCCACCGGAGTCACCTAGTGCAG”: 8760 fluorescence intensity (a.u.); for “AAGTCAGTATGCATATGCCTCCAATCTCTGCAGTTCCCAGCGGAGTCACCTAGTGCAG”: 9250 fluorescence intensity (a.u.).
Regarding “GAGTCGTCTTCTTCCTCTCTCTCTCTCTCTCAGCCAGCCCCGGAGTCACCTAGTGCAG”, the binding signal is 8890 fluorescence intensity (a.u.).
Under “GCCGCCGCTTGCCGCCACGCCCGTCCACCGCCGCTCCTCCCGGAGTCACCTAGTGCAG” stands 9640 fluorescence intensity (a.u.).
As to “AATTTTAAGGACCATATTAGCTATTCTCCTTTTTATTTTTCGGAGTCACCTAGTGCAG”, the binding signal is 10100 fluorescence intensity (a.u.).
Under “CTGCTTTTTATTTTTCTCCGATTAATGTGAGAATTTCTAGCGGAGTCACCTAGTGCAG” stands 8690 fluorescence intensity (a.u.).
Under “CACCTCATTGGGCTTTTATCGCGGCCTTATTTATTGTTAGCGGAGTCACCTAGTGCAG” stands 11000 fluorescence intensity (a.u.); under “TTGGCTATCGTTGATGGATTTAACTCTTTGTTGTTTTTCTCGGAGTCACCTAGTGCAG”, 9640 fluorescence intensity (a.u.).
Turning to “ATTACTCCTGCATTTCCTCTCGTTTTTTCTACCTAATATTCGGAGTCACCTAGTGCAG”, the binding signal is 8920 fluorescence intensity (a.u.).
Under “CACAACCTTTGTTGTTTTTCTGACAAAGAAAATATAACTTCGGAGTCACCTAGTGCAG” stands 12000 fluorescence intensity (a.u.).
The same measure for “AACTGCATTGTACAACTCGTAGATATATACTACCATCCAACGGAGTCACCTAGTGCAG”: 8080 fluorescence intensity (a.u.); for “ATAATATGACTACTGTCCGTCCGAATCCGCTCCGATTTCACGGAGTCACCTAGTGCAG”: 9740 fluorescence intensity (a.u.).
With “TTCTCTCCGGTCAAATTTCCACCCACAATTTCTCATGATCCGGAGTCACCTAGTGCAG”, the binding signal was 8480 fluorescence intensity (a.u.).
Regarding “CTCATCCGTCCATCGCTATCCCCTATCCTCCTCGCTGTAGCGGAGTCACCTAGTGCAG”, the binding signal is 10600 fluorescence intensity (a.u.).
“CGTGGCCTCGCCATCCGACACTGTGCCTCTCATCCCGCGACGGAGTCACCTAGTGCAG”: the binding signal was 8290 fluorescence intensity (a.u.).
